# Laboratory results as given in article PMC5133637.
# The chains behind the UniProt entries cited, without tags or fusion partners.
# UniProt P48432: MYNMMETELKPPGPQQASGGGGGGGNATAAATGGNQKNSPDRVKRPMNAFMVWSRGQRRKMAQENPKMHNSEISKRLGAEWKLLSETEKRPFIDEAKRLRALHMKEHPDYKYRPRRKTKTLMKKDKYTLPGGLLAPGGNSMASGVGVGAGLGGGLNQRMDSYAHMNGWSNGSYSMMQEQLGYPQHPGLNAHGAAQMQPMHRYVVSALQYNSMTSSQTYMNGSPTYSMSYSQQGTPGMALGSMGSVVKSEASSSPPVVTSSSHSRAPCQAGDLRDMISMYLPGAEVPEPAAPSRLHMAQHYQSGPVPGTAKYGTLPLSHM
# Results are given in words; binding and its absence hold for the method and conditions named. In cells and extracts the contact can be indirect. Some binding calls cover weakened binding; strength is not graded here. For some assays here: Where a sequence is shown, tags or fusion partners need not be part of it.
# B1: HA-Nanog (protein, UniProt Q80Z64 1-305)
# chain: MSVGLPGPHSLPSSEEASNSGNASSMPAVFHPENYSCLQGSATEMLCTEAASPRPSSEDLPLQGSPDSSTSPKQKLSSPEADKGPEEEENKVLARKQKMRTVFSQAQLCALKDRFQKQKYLSLQQMQELSSILNLSYKQVKTWFQNQRMKCKRWQKNQWLKTSNGLIQKGSAPVEYPSIHCSYPQGYLVNASGSLSMWGSQTWTNPTWSSQTWTNPTWNNQTWTNPTWSSQAWTAQSWNGQPWNAAPLHNFGEDFLQPYVQLQQNFSASDLEVNLEATRESHAHFSTPQALELFLNYSVTPPGEI
# B2: Flag-USP21-LV (enzyme, UniProt Q9QZL6 1-566)
# chain: MPQASEHRLGRTREPPVNVQPRVGAKIPFPPRARSKERRNPVPGPNSMLRPLPPRPGPPDERLKKLELGRGRTSGSRPRGPLRADHGVPLPGSPPPAVALPLPSRTNLARSKSVSSGDLRPMGIALGGHRGAGELGAALSRLALRPEPPTLRRSTSLRRLGGFPGPPTLLSIRTEPPTSHGSFHMISARPSEPFYSDDKMAHHTLLLGSGHVGLRNLGNTCFLNAVLQCLSSTRPLRDFCLRRDFRQEVPGGGRAQELTEAFADVIGALWHPDSCEAVNPTRFRAVFQKYVPSFSGYSQQDAQEFLKLLMERLHLEINRRGRRAPPILASGPVPSPPRRGGGALHEEPELSDDDRANLMWKRYLEREDSKIVDLFVGQLKSCLKCQACGYRSTTFEVFCDLSLPIPKKGFAGGKVSLRDCFSLFTKEEELESENAPVCDRCRQKTRSTKKLTVQRFPRILVLHLNRFSTSRGSIKKSSVGVDFPLQRLSLGDFASDKAGSPVYQLYALCNHSGSVHYGHYTALCRCQTGWHVYNDSRVSPVSENQVASSEGYVLFYQLMQEPLRCL
# B3: endogenous USP21 (enzyme, UniProt Q9QZL6 1-566)
# chain: B2 chain
# Columns and labels:
# [1] = target: T1, endogenous USP21 (mouse (endogenous in E14)) (UniProt Q9QZL6); experiment: co-IP; endogenous proteins from E14 mESC lysate; IP with anti-Nanog or anti-USP21 (Abgent) antibody; western blot; in one panel cells treated with mFGF4 (25 ng/ml) with or without PD0325901 (1 uM) for 12 h
# T1 sequence: B2 chain
# Flag-USP21-LV (mouse) = target: T2, Flag-USP21-LV (mouse) (UniProt Q9QZL6); experiment: co-IP; transfected HEK293T cells; lysis in 50 mM Tris-Cl pH 7.4, 0.5% NP-40, 150 mM NaCl, 1 mM EDTA; HA-conjugated beads or M2 (anti-Flag) beads 2-3 h; western blot; in some panels cells treated with EGF with or without SCH772984, or co-expressing MEK1^CA and ERK1
# T2 sequence: B2 chain
# USP2 = target: T3, USP2 (UniProt O88623); experiment: as above
# T3 sequence: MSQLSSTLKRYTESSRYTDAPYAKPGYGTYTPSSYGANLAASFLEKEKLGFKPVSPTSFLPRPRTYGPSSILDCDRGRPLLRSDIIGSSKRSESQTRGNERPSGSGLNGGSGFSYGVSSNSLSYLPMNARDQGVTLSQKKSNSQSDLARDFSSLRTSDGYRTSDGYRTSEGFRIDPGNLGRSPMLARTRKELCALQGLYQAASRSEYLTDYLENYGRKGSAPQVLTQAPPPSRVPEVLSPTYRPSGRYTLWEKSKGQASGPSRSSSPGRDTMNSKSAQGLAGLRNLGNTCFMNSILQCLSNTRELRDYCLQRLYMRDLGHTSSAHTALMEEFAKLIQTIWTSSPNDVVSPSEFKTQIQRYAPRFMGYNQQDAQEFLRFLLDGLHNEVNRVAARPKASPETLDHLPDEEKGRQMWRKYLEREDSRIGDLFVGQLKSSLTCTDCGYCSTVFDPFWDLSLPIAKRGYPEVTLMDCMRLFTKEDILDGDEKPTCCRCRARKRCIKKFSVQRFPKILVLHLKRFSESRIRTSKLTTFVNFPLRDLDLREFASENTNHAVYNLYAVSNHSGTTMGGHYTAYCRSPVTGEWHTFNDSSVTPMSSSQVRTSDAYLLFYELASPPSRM
# HA-Nanog (mouse) = target: T4, HA-Nanog (mouse) (UniProt Q80Z64); experiment: as above
# T4 sequence: B1 chain
# [2] = target: T5, endogenous Nanog (mouse (endogenous in E14)) (UniProt Q80Z64); experiment: co-IP; endogenous proteins from E14 mESC lysate; IP with anti-Nanog or anti-USP21 (Abgent) antibody; western blot; in one panel cells treated with mFGF4 (25 ng/ml) with or without PD0325901 (1 uM) for 12 h
# T5 sequence: B1 chain
molecule,measurement,setting,value
endogenous Sox2 (from UniProt P48432 1-319),binding,[1],no binding
B1,binding,Flag-USP21-LV (mouse),binds
same,binding,USP2,binds weakly
B2,binding,HA-Nanog (mouse),binds
B3,binding,[2],binds
